According to PubChem BioAssay AID624098 (National Center for Advancing Translational Sciences (NCATS), 2012):
The other results are listed elsewhere or left out. The main result of the screen is listed elsewhere. These columns were measured beside it and carry no call. Most of these compounds were active or inconclusive in the main read-out, so they are no random draw.

test: Assay for General Anesthetic Phenotype in Xenopus Tadpoles; conditions: startle-response immobility, 1 h, measured here: 24 h immobility, toxicity/death, at 10 µM
Text: Anesthetic development has remained a largely empirical process. There are growing concerns about the cognitive effects of known general anesthetics and acceleration of the onset of neurodegenerative disease. The compounds' toxicity and multiple specific binding targets in the mammalian brain [4] has made them less attractive as drug leads. This assay was designed for the in vivo follow-up testing of compounds in tadpoles. References: [1] S.L. Bianchi, T. Tran, C. Liu, S. Lin, Y. Li, J.M. Keller, R.G. Eckenhoff, and M.F. Eckenhoff, Brain and behavior changes in 12-month-old Tg2576 and nontransgenic mice exposed to anesthetics. Neurobiol Aging 29 (2008) 1002-10. Z. Xie, Y. Dong, U. Maeda, R.D. Moir, W. Xia, D.J. Culley, G. Crosby, and R.E. Tanzi, The inhalation anesthetic isoflurane induces a vicious cycle of apoptosis and amyloid beta-protein accumulation. J Neurosci 27 (2007) 1247-54. P. Honegger, and J.M. Matthieu, Selective toxicity of the general anesthetic propofol for GABAergic neurons in rat brain cell cultures. J Neurosci Res 45 (1996) 631-6. M.F. Eckenhoff, K. Chan, and R.G. Eckenhoff, Multiple specific binding targets for inhaled anesthetics in the mammalian brain. J Pharmacol Exp Ther 300 (2002) 172-9. C.A. Butts, J. Xi, G. Brannigan, A.A. Saad, S.P. Venkatachalan, R.A. Pearce, M.L. Klein, R.G. Eckenhoff, and I.J. Dmochowski, Identification of a fluorescent general anesthetic, 1-aminoanthracene. Proc Natl Acad Sci U S A 106 (2009) 6501-6. W.A. Lea, J. Xi, A. Jadhav, L. Lu, C.P. Austin, A. Simeonov, and R.G. Eckenhoff, A high-throughput approach for identification of novel general anesthetics. PLoS One 4 (2009) e7150.
Pre-limb bud Xenopus tadpoles were obtained in large batches from Nasco, Inc. Batches of 10 tadpoles were placed in 20 mm Petri dishes with approximately 20 ml of pond water ("pond water" is approximately a 20-fold dilution of Ringers saline solution). Compounds were added to the pond water from DMSO stock to obtain 100, 10 and 1 microM concentrations. Tadpoles were then incubated with these solutions for 1 hour, and then scored for "anesthesia". Anesthesia in this case is lack of movement in response to a sharp tap on the Petri dish lid, i.e., a lack of startle response. This correlates well to the loss of righting reflex in rodents and the loss of consciousness in humans. The pond water is then changed, and the return of a startle response is monitored for 24 hours. Immobility at 24 hours is considered death.

Row | Compound | immobility
1 | O=C(Cn1nc(-c2ccccc2)ccc1=O)NCCc1ccccc1 | 5%
2 | O=C(Cn1nc(C2CCCCC2)ccc1=O)NCCc1ccccc1 | 5%
3 | COc1cccc(-c2ccc(=O)n(CC(=O)NCCc3ccccc3)n2)c1 | 10%
4 | Cc1cccc(-c2ccc(=O)n(CC(=O)NCCc3ccccc3)n2)c1 | 5%
